The list shows a part of the results.
These molecules were tested on T1, CTL2-GFP (C. trachomatis L2/434/Bu, GFP-expressing). Settings: bulk GFP, single well; 28.5 h, 10 µM; inhibitor.
T1 construct: L2/434/Bu, GFP-expressing
Set-up: species or system HeLa; Intracellular C. trachomatis growth in HeLa cells, bulk GFP fluorescence relative to DMSO

Row | SMILES | % of control remaining
1 | CC1CCN(S(=O)(=O)N2CCNCC2)CC1 [CBK269836C] | 123.422%
2 | Cc1cc(C)n(C2CCN(Cc3c(C)nc4c(C)cccn34)CC2)n1 [CBK281617] | 74.4169%
3 | CC1CC1C(=O)NCC(=O)N1CCN(S(=O)(=O)c2ccccc2[N+](=O)[O-])CC1 (centres unmarked) [CBK296747] | 145.496%
4 | O=C(NC(C(=O)N/N=C/c1ccc(Cl)cc1Cl)c1n[nH]c(=O)c2ccccc12)c1ccccc1 (centres unmarked) [CBK261118] | 117.908%
5 | COCCNc1nc(-c2ccccc2)ccc1C(=O)N(C)CCN(C)C [CBK105913] | 149.687%
6 | Cc1ccc2nc(N3CCCC(O)C3)c(CN3CCSCC3)cc2c1 (centres unmarked) [CBK307000] | 147.229%
7 | O=C(O)C1C2CCC(O2)C1C(=O)NCc1ccco1 (centres unmarked) [CBK263675] | 116.334%
8 | C#Cc1cn([C@H]2C[C@@H](O)[C@@H](CO)O2)c(=O)[nH]c1=O [CBK201207] | 112.531%
9 | CCCn1c(SCC(=O)N(C)Cc2ccc(OCC)cc2)n[nH]c1=O [CBK295132] | 176.833%
10 | N#Cc1ccc(SCCOC(=O)c2cccs2)c([N+](=O)[O-])c1 [CBK066853] | 128.286%
11 | Cc1cnc(CNS(=O)(=O)c2ccc(C(C)C)cc2)cn1 [CBK044615] | 100.039%
12 | CS(=O)(=O)c1ccc(-c2ccc3c(c2)COC(C2CCN(C(=O)OCc4ccccc4)CC2)O3)cc1 (centres unmarked) [CBK144643] | 102.881%
13 | Cc1[nH]c2c(C(=O)NCCCC3CCOC3)cccc2c1C (centres unmarked) [CBK282551] | 95.871%
14 | CS(=O)(=O)c1ccc(-c2c[nH]c([C@@H]3COCCN3C3CCCCC3)n2)cc1 [CBK289299] | 113.561%
15 | OCCN1CCN(c2nccc(C(F)(F)F)n2)CC1 [CBK028754] | 116.399%
16 | Fc1ccc(-c2ccc(CNCCCN3CCOCC3)o2)cc1 [CBK278199C] | 147.127%
17 | CC1(C)CC(NS(=O)(=O)c2ccc(Br)cc2)CC(C)(C)N1 [CBK266805] | 168.188%
18 | CS(=O)(=O)Nc1nn(-c2ccc(NC(=O)c3ccno3)cc2)c2ccccc12 [CBK048591] | 78.7287%
19 | O=C(c1ccccc1)N1CCN(c2ccc(-n3cccn3)nn2)CC1 [CBK287662] | 151.423%
20 | CC(Oc1cccc(Cl)c1)C(=O)N/N=C/c1cccc(Oc2ccccc2)c1 (centres unmarked) [CBK262113] | 100%
21 | COc1cccc(C(=O)N2CCC(NC(=O)c3ccccc3C(F)(F)F)CC2)c1 [CBK155024] | 136.024%
22 | Cc1[nH]c(=O)[nH]c(=O)c1CC(=O)N1Cc2cc(Cl)ccc2OC2(CCOCC2)C1 [CBK286341] | 138.311%
23 | COc1c[nH]c(C(=O)NC(CCn2ccnc2)c2ccccc2)cc1=O (centres unmarked) [CBK306743] | 122.713%
24 | FC(F)(F)c1ccc(Sc2cccc3ccccc23)nc1 [CBK089553] | 94.6651%
25 | O=C(CCS(=O)(=O)c1ccccc1)Nc1cc2ccccc2c(N2CCNCC2)n1 [CBK028419T] | 106.017%

Part of the list above in order of number of heavy atoms, rising:
Row | SMILES | % of control remaining
1 | CC1CCN(S(=O)(=O)N2CCNCC2)CC1 [CBK269836C] | 123.422%
8 | C#Cc1cn([C@H]2C[C@@H](O)[C@@H](CO)O2)c(=O)[nH]c1=O [CBK201207] | 112.531%
15 | OCCN1CCN(c2nccc(C(F)(F)F)n2)CC1 [CBK028754] | 116.399%
24 | FC(F)(F)c1ccc(Sc2cccc3ccccc23)nc1 [CBK089553] | 94.6651%
13 | Cc1[nH]c2c(C(=O)NCCCC3CCOC3)cccc2c1C (centres unmarked) [CBK282551] | 95.871%
6 | Cc1ccc2nc(N3CCCC(O)C3)c(CN3CCSCC3)cc2c1 (centres unmarked) [CBK307000] | 147.229%
23 | COc1c[nH]c(C(=O)NC(CCn2ccnc2)c2ccccc2)cc1=O (centres unmarked) [CBK306743] | 122.713%
14 | CS(=O)(=O)c1ccc(-c2c[nH]c([C@@H]3COCCN3C3CCCCC3)n2)cc1 [CBK289299] | 113.561%
3 | CC1CC1C(=O)NCC(=O)N1CCN(S(=O)(=O)c2ccccc2[N+](=O)[O-])CC1 (centres unmarked) [CBK296747] | 145.496%
21 | COc1cccc(C(=O)N2CCC(NC(=O)c3ccccc3C(F)(F)F)CC2)c1 [CBK155024] | 136.024%
25 | O=C(CCS(=O)(=O)c1ccccc1)Nc1cc2ccccc2c(N2CCNCC2)n1 [CBK028419T] | 106.017%

(next part)

Row | SMILES | % of control remaining
26 | CN(C)CCN1CCN(c2nc(-c3cccc4ccccc34)cnc2N)CC1 [CBK063479] | 136.777%
27 | Cc1noc(C)c1C(=O)NC(Cc1ccsc1)c1cccnc1 (centres unmarked) [CBK285100] | 135.414%
28 | CC(C)C(=O)N1N=C2CCCCC2C1(O)C(F)(F)F (centres unmarked) [CBK028091] | 143.577%
29 | CC(Cc1cccs1)NC(=O)C(C)n1ccnc1 (centres unmarked) [CBK282050] | 96.7993%
30 | Cc1ccc(Cc2cnc(NC(=O)c3ccoc3C)s2)cc1C [CBK298277] | 123.688%
31 | COc1ccc(OC)c(NS(=O)(=O)c2ccccc2)c1 [CBK099989] | 88.4478%
32 | CC(C)CN1CC2(CCN(C(=O)OCc3ccccc3)CC2)c2ccccc21 [CBK022626C] | 124.767%
33 | Cn1cc(C2CCCN2C(=O)c2cccc(C#N)c2)cn1 (centres unmarked) [CBK304849] | 127.751%
34 | CC(C)COC(=O)n1ccc(C(=O)N2CCCCC2)n1 [CBK058828] | 131.969%
35 | O=C(C1=C(O)C(=O)N(CCN2CCOCC2)C1c1ccccn1)c1cc2ccccc2o1 (centres unmarked) [CBK269576] | 117.407%
36 | O=S(=O)(c1ccccc1)N(CC(O)CN1CCCC1)c1cccc2ccccc12 (centres unmarked) [CBK264464C] | 100%
37 | Cn1nc(C(F)(F)F)c(C#N)c1Oc1ccc(C(C)(C)C)cc1 [CBK007398] | 136.286%
38 | Cc1cc(CNC(=O)CCn2ccc(C)n2)on1 [CBK281485] | 94.1853%
39 | COc1ccccc1[C@@H]1C[C@H](OC(=O)c2ccc(F)cc2)C(=O)N1C [CBK283598] | 155.176%
40 | CC(C)c1nc2c(c(=O)c3ccccc3n2C)c(=O)n1-c1ccccc1 [CBK287947] | 150.891%
41 | O=C(NCc1ccc(F)cc1)N(Cc1cccc(Cl)c1)CC1CCNCC1 [CBK119479] | 105.378%
42 | O=C(Nc1ccccc1)N[C@H]1CO[C@H]2[C@@H]1OC[C@H]2OCc1ccccc1 [CBK289488] | 95.4063%
43 | COc1ccc(S(=O)(=O)N(C)CC(=O)Nc2ccc(S(N)(=O)=O)cc2)cc1C [CBK267333] | 131.196%
44 | COc1ccc(C)cc1CN(C)C(=O)c1cccc(NC(=O)C2CC2)c1 [CBK305414] | 135.522%
45 | COc1ccc(F)c(CN(CC2CCNCC2)C(=O)Nc2c(F)cccc2F)c1 [CBK049804] | 85.755%
46 | Cc1n[nH]nc1C(=O)N(C)CC(C)Oc1ccc(Cl)c(Cl)c1 (centres unmarked) [CBK306173] | 103.174%
47 | O=C1/C(=N\O)c2cc(Cl)ccc2N1Cc1ccccc1 [CBK288468] | 114.929%
48 | CN1CCN(C(=O)Nc2ccc(Cc3ccc(NC(=O)N4CCN(C)CC4)cc3)cc2)CC1 [CBK264852] | 116.236%
49 | Cc1nc(C)n(CC2CCCN(Cc3cc(C#N)cs3)C2)n1 (centres unmarked) [CBK304787] | 99.7074%
50 | Cc1csc(C(Cc2cccs2)NC(=O)C2CCOC2)n1 (centres unmarked) [CBK285123] | 100.288%

Source: publication PMC12040169 (PLOS Biology, 2025)
